This assay in a line: qHTS Assay for Lipid Storage Modulators in Drosophila S3 Cells.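 On cell number change: cells counted by Cell Tracker Red CMTPX staining in the red channel.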 To be noted: BODIPY lipid droplet fluorescence, 18-24 h; for cell number change: measured here: cell count max response, cells fed with added oleic acid. The method in brief: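 Laser-scanning cytometry quantifies lipid droplet accumulation (500–530 nm total intensity; droplet/cell object ratio) in oleic acid-fed (400 uM added) Drosophila S3 cells treated with a concentration series. 20 uM Triacsin C defined 100% inhibition.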

The mark [1] stands for this setting: measured here: cell number channel AC50, cells fed with added oleic acid.
The mark [2] stands for this setting: measured here: lipid fluorescence (Fed channel) AC50, cells fed with added oleic acid.

The list shows a part of the results. These are further read-outs of the screen, such as a control signal, another cell line or another target. No call is given for them. Most of these compounds were active or inconclusive in the main read-out, so they are no random draw. Words in brackets tell the shape of the fitted curve; partial curves, single points and poor fits give uncertain potencies.

In the case of `O=C(NC1CCCCCC1)c1ccc(S(=O)(=O)NCc2ccco2)cc1`, the cell number change was found to be 57.9%. For the same compound, the AC50 under setting [1] is 20.6 µM [rising, single point].

With `Cc1ccc(/C=[N+](\[O-])c2ccc(N(C)C)cc2)c2nsnc12`, the cell number change is -15.3%. The AC50 under setting [1] was 6.51 µM [rising, single point]. The AC50 under setting [2] was 4.61 µM [falling, single point].

On to `COc1cccc(-c2ccc(NC(=O)C3CCCN(Cc4cc(C)[nH]n4)C3)cc2)c1` (stereo not given), for which the cell number change is 8.42%. Besides, under setting [2], the AC50 is 11.6 µM [falling, single point].

`Cc1ccc(-n2ncc3c(N4CCC5(CC4)OCCO5)ncnc32)c(C)c1`: the cell number change was -76.1%. The AC50 under setting [1] is 20.6 µM [falling, single point].

As for `COc1cccc2c(SCC(=O)N/N=C/c3ccc(O)c(O)c3)cc(C)nc12`, the cell number change stood at 27.2%. Besides, the AC50 under setting [2] is 3.66 µM [rising, partial curve].

Turning to `Cn1nnnc1SCc1cc(=O)n2ccsc2n1`, the cell number change turned out to be 6.11%. Also, the AC50 under setting [2] is 0.184 µM [rising, full curve, poor fit].

As to `COc1ccc2cc3c(N)nn(C(=O)c4ccc(F)cc4)c3nc2c1`, the cell number change stood at 14%. Besides, the AC50 under setting [2] was 0.184 µM [rising, full curve].

`CC1=NC(=O)C(N=Nc2ccccc2)N1c1ccccc1` (stereo not given): the cell number change is -35.9%. In addition, the AC50 under setting [1] is 20.6 µM [falling, partial curve, poor fit]. Also, the AC50 under setting [2] was 14.6 µM [falling, partial curve, poor fit].

Regarding `O=C(NCC(=O)N1CCC2(CC1)NCCc1[nH]cnc12)c1ccc(Br)cc1`, the cell number change is -1.98%. For the same compound, the AC50 under setting [2] is 0.326 µM [rising, partial curve, poor fit].

For `CCN(CC)c1ccc(NC(=O)CN(C)Cc2cccs2)cc1`, the cell number change was 15.4%.

On to `O=C1C2CC=C(Cl)CC2C(=O)N1CCCCCCN1C(=O)C2CC=C(Cl)CC2C1=O` (stereo not given), for which the cell number change was -26.7%. The AC50 under setting [2] is 0.82 µM [falling, full curve, poor fit].

In the case of `COc1ccc(C(=O)NCCCNC(=O)c2cnccn2)cc1`, the cell number change was found to be 16.2%. For the same compound, the AC50 under setting [2] was 0.13 µM [falling, full curve, poor fit].

Take `CC(C)CC(=O)N1CC(=O)Nc2ccc(F)cc2C1c1ccccc1` (stereo not given): the cell number change was -45%.

As for `COc1ccccc1NC(=O)NN1CCCCC1`, the AC50 under setting [2] is 0.82 µM [falling, full curve].

As for `COc1cccc(CN2CC(C(=O)NC3CCC(O)CC3)CCC2=O)c1` (stereo not given), the cell number change worked out at 16.3%.

With `CCOc1ccc(N2CC(C(=O)Nc3ccc(S(=O)(=O)Nc4ncccn4)cc3)CC2=O)cc1` (stereo not given), the cell number change was -31.2%. Besides, the AC50 under setting [1] is 6.51 µM [falling, full curve, poor fit]. In addition, under setting [2], the AC50 was 5.8 µM [falling, full curve].

Consider `Cc1nc2cc(-c3ccc(Br)cc3)[nH]n2c(=O)c1Cl`, for which the cell number change is -22.5%. Moreover, under setting [2], the AC50 was 6.51 µM [rising, single point].

Turning to `CCOc1ccc(Nc2nc(Cc3nnc(SCC(N)=O)o3)cs2)cc1`, the cell number change is 13.5%. Also, under setting [2], the AC50 is 3.66 µM [falling, partial curve].

As for `CS(=O)(=O)c1ccc(Cl)c(NC(=O)COC(=O)CNC(=O)c2cccs2)c1`, the cell number change is -7.53%. Further, under setting [2], the half-maximal activity concentration (AC50) is 29.1 µM [rising, single point].

For the compound `O=C(NCCCN1CCCC1=O)c1sc2ccccc2c1Cl`, the cell number change is -53.3%. Moreover, the AC50 under setting [1] is 8.2 µM [falling, partial curve]. Moreover, the AC50 under setting [2] is 5.17 µM [falling, partial curve].

For the compound `CCN1CCCC1CNC(=O)CSCc1nc(-c2ccccc2C)oc1C` (stereo not given), the cell number change is 19%. The half-maximal activity concentration (AC50) under setting [2] is 18.4 µM [rising, single point].

On to `CCOC(=O)CCc1c(C)c(C#N)c2nc3ccccc3n2c1-n1ccnc1`, for which the AC50 under setting [1] is 2.31 µM [rising, partial curve] and the AC50 under setting [2] was 2.91 µM [rising, full curve].

On to `COc1ccccc1NCN1C(=O)CCC1=O`, for which the cell number change is 8.38%. Moreover, under setting [2], the AC50 is 29.1 µM [rising, single point].

Regarding `COc1cc(NC(=O)c2ccc(Cl)cc2)c(OC)cc1Cl`, the cell number change was found to be 89.3%. In addition, the AC50 under setting [1] is 29.1 µM [rising, single point]. Under setting [2], the AC50 is 6.51 µM [rising, partial curve].

For `COc1ccc(C(=O)Nc2nnc(SCC(=O)NCc3ccco3)s2)c(OC)c1`, the cell number change was found to be 1.39%.

Turning to `O=C(NC(=S)N1CCN(c2c(Cl)cccc2[N+](=O)[O-])CC1)c1cccs1`, the cell number change was determined as 34.4%. For the same compound, the AC50 under setting [1] was 29.1 µM [rising, single point]. Further, the AC50 under setting [2] was 20.6 µM [rising, single point].

As to `CC(=O)c1c(C)[nH]c(C(=O)OCC(=O)N(Cc2ccccc2)C(C)(C)C)c1C`, the cell number change was -10.9%. Moreover, under setting [2], the AC50 was 18.4 µM [falling, single point].

Turning to `CCCS(=O)(=O)N1CCCC(C(=O)NCC2CCCO2)C1` (stereo not given), the cell number change was -19.6%. The AC50 under setting [1] was 2.91 µM [falling, single point].

With `COc1cc(SC)ccc1C(=O)OCC(=O)NC1CCCC1`, the cell number change worked out at 56.2%.

As for `CC(c1ccccc1)n1c(-c2ccc(C(C)(C)C)cc2)n[nH]c1=S` (stereo not given), the cell number change was -37%. In addition, the AC50 under setting [1] is 14.6 µM [falling, partial curve, poor fit]. Also, the AC50 under setting [2] was 6.51 µM [falling, single point].

For `CN(C)CCCn1c(SCC(=O)N2c3ccccc3Sc3ccccc32)nc2ccccc2c1=O`, the cell number change is -52.4%. Besides, under setting [1], the AC50 is 14.6 µM [falling, single point]. In addition, the AC50 under setting [2] is 16.4 µM [falling, single point].

Take `CC1(C)N(OCc2ccccc2)C(=O)C(=O)N(OCc2ccccc2)C1(C)C`: the cell number change is -16.6%. Further, the AC50 under setting [2] was 11.6 µM [falling, single point].

With `COc1ccc(CN(C(=O)c2snc(C(N)=O)c2N)C(C(=O)NC2CCCC2)c2ccco2)cc1` (stereo not given), the cell number change stood at 0.427%. Besides, under setting [2], the AC50 is 4.11 µM [falling, single point].

On to `Cc1ccc(S(=O)(=O)N2CCN(c3ccccc3)CC2)cc1C`, for which the cell number change came out at 7.12%. Further, under setting [1], the AC50 is 2.06 µM [rising, partial curve, poor fit]. Further, the AC50 under setting [2] is 10.3 µM [falling, single point].

With `N#Cc1ccccc1OCC(=O)Nc1cccc(S(=O)(=O)N2CCCC2)c1`, the cell number change was -3.21%. For the same compound, the AC50 under setting [2] was 0.731 µM [falling, full curve, poor fit].

With `CC(Oc1cc(F)ccc1[N+](=O)[O-])C(=O)Nc1ccc(S(=O)(=O)N2CCCC2)cc1` (stereo not given), the cell number change is 8.53%. The concentration at half-maximal activity (AC50) under setting [1] was 6.51 µM [rising, single point]. Also, the AC50 under setting [2] was 3.26 µM [rising, partial curve].

Regarding `O=C(COC(=O)c1ccc(Cl)c(S(=O)(=O)N2CCc3ccccc3C2)c1)Nc1ncc(Cl)cc1Cl`, the AC50 reads like this: under setting [1], 0.58 µM [falling, single point]; under setting [2], 13 µM [rising, partial curve].

With `N#CC1C(C#N)N2CCCN2C1c1ccc(Br)cc1` (stereo not given), the cell number change is -3.25%. In addition, the AC50 under setting [2] is 6.51 µM [falling, single point].

Regarding `CC(=O)c1c(N2CCN(C(=O)C3CCCO3)CC2)nc(=S)n(-c2ccccc2)c1C` (stereo not given), the cell number change stood at 6.72%.

Regarding `C/C(=N\Nc1ccc(Cl)cc1)c1c(O)cc(C)oc1=O`, the AC50 under setting [1] was 6.51 µM [rising, single point].

Regarding `COc1ccc(S(=O)(=O)N(C)c2ccc(C(=O)Nc3cccnc3)cc2)cc1`, the cell number change is -23.8%.

As to `Cc1ccccc1C(=O)NC(=S)NCc1ccccc1`, the cell number change is 10.2%. Further, under setting [2], the AC50 is 29.1 µM [rising, single point].

With `Oc1ccc(/C=N/Nc2ccnc3cc(Cl)ccc23)c(O)c1`, under setting [2], the AC50 is 32.6 µM [falling, partial curve].

In the case of `O=S(=O)(Nc1ccc(-n2cnnn2)cc1)c1cccc(F)c1`, the cell number change was -3.61%.

With `C#CCOCCOCCOCCNc1nc(N2CCN(C(=O)[C@H]([C@@H](C)O)n3cc(CCCCN)nn3)CC2)nc(N2CCN(C(=O)[C@H]([C@@H](C)CC)n3cc(CCCN=C(N)N)nn3)CC2)n1`, the cell number change stood at 0.776%. The AC50 under setting [2] was 6.51 µM [falling, single point].

As for `COc1ccc(C(=O)C2CCN(S(=O)(=O)c3ccc4c(c3)OCCO4)CC2)cc1`, the cell number change is 18.2%. The AC50 under setting [2] was 0.00517 µM [falling, full curve, poor fit].

As for `O=C(O)c1ccccc1NN=C1CCCCC1`, the cell number change is -0.493%. Besides, the AC50 under setting [2] is 1.16 µM [falling, full curve, poor fit].

Regarding `O=C1c2cccc3cc([N+](=O)[O-])cc(c23)C(=O)N1CCN1CCCC1`, the cell number change was -53.3%. Moreover, the AC50 under setting [1] is 3.66 µM [falling, partial curve]. For the same compound, under setting [2], the AC50 was 6.51 µM [falling, full curve].

Regarding `O=C(Cc1ccc(F)cc1)OCC(=O)c1cc2ccccc2o1`, the cell number change worked out at 3.61%.

`CC1=CC(c2ccccc2)n2nc(N3C(=O)c4ccccc4C3=O)nc2N1` (stereo not given): the cell number change was -146%. Moreover, the AC50 under setting [1] is 23.1 µM [falling, partial curve]. The AC50 under setting [2] was 23.1 µM [falling, partial curve].

As to `COc1ccc2cc(C(C)C(=O)N3CCC(C(N)=O)CC3)ccc2c1` (stereo not given), the cell number change amounted to 3.15%. Also, the AC50 under setting [2] is 29.1 µM [rising, partial curve].

Take `CCc1cc(C(=O)Nc2ccc(S(=O)(=O)NC3=NCCCCC3)cc2)sc1C`: the cell number change is -15.8%. Besides, under setting [2], the AC50 is 16.4 µM [rising, single point].

As to `Cc1nnc(NC(=O)C(C)Sc2nnc(-c3ccco3)n2C)s1` (stereo not given), the cell number change amounted to 8.7%.

In the case of `Cc1csc(NC(=O)CSC2=NCCS2)n1`, the cell number change came to 13.6%. The AC50 under setting [2] was 2.06 µM [rising, partial curve].

`O=c1[nH]c(/C=C2\C=Nc3ccccc32)c(O)n1Cc1ccccc1F`: the cell number change is -33.6%. In addition, the AC50 under setting [2] is 5.8 µM [falling, full curve].

`Cc1ccc(C(=O)OC(C)C(=O)Nc2ccc(S(N)(=O)=O)cc2)cc1S(=O)(=O)N1CCOCC1` (stereo not given): under setting [1], the AC50 was 4.11 µM [rising, single point].

As to `Cc1[nH]cnc1CSCCN`, the cell number change is 43.3%. Further, the AC50 under setting [1] was 20.6 µM [rising, partial curve, poor fit]. The AC50 under setting [2] is 6.51 µM [falling, single point].

As for `O=C(COC(=O)c1cccc(S(=O)(=O)N2CCN(c3ccccc3)CC2)c1)NCC1CCCO1` (stereo not given), the cell number change is -18%. The AC50 under setting [2] is 32.6 µM [falling, single point].

By AC50 is commonly meant the concentration giving half of the maximal activity seen. A high value points to activity only at high concentration.
